Data reported in the supplement of paper PMC10849652.
This is one part of the list.

The chains behind the UniProt entries cited, without tags or fusion partners. Where a name states a change or a piece, a line headed by the entry shows the natural chain unless it says otherwise.
UniProt Q9NP79: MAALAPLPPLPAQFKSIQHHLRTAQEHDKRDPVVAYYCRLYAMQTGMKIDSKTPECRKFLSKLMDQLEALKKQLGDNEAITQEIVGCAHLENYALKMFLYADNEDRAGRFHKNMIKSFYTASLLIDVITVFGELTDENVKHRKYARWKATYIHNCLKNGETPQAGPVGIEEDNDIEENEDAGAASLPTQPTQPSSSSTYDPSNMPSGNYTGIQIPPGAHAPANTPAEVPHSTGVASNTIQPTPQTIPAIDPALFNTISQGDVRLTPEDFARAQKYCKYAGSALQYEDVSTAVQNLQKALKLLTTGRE
UniProt Q6PJI9: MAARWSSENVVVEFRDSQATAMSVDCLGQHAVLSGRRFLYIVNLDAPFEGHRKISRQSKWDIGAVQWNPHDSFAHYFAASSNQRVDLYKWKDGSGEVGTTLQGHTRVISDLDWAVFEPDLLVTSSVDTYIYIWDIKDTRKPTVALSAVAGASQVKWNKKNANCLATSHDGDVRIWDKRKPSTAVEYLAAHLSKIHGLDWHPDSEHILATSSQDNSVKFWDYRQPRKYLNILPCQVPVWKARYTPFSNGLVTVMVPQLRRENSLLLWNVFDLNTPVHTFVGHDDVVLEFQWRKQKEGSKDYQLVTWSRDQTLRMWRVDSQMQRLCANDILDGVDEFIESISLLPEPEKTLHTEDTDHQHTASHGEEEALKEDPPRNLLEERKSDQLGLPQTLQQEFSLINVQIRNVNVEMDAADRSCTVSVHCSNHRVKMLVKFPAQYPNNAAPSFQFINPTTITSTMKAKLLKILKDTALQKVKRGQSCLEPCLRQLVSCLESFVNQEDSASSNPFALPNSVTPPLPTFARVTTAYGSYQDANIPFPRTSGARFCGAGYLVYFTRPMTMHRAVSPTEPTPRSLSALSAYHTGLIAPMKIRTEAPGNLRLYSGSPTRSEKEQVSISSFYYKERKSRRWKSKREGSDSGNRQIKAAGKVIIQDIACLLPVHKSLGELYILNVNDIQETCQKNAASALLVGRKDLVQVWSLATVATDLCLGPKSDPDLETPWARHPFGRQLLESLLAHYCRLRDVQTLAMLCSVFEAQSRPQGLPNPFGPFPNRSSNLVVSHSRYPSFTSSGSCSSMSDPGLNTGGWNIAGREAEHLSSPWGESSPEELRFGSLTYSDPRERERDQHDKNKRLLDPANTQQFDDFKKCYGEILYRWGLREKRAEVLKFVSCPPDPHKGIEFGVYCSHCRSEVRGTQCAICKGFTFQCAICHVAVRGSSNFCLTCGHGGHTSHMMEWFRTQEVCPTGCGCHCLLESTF
UniProt Q9C0J8: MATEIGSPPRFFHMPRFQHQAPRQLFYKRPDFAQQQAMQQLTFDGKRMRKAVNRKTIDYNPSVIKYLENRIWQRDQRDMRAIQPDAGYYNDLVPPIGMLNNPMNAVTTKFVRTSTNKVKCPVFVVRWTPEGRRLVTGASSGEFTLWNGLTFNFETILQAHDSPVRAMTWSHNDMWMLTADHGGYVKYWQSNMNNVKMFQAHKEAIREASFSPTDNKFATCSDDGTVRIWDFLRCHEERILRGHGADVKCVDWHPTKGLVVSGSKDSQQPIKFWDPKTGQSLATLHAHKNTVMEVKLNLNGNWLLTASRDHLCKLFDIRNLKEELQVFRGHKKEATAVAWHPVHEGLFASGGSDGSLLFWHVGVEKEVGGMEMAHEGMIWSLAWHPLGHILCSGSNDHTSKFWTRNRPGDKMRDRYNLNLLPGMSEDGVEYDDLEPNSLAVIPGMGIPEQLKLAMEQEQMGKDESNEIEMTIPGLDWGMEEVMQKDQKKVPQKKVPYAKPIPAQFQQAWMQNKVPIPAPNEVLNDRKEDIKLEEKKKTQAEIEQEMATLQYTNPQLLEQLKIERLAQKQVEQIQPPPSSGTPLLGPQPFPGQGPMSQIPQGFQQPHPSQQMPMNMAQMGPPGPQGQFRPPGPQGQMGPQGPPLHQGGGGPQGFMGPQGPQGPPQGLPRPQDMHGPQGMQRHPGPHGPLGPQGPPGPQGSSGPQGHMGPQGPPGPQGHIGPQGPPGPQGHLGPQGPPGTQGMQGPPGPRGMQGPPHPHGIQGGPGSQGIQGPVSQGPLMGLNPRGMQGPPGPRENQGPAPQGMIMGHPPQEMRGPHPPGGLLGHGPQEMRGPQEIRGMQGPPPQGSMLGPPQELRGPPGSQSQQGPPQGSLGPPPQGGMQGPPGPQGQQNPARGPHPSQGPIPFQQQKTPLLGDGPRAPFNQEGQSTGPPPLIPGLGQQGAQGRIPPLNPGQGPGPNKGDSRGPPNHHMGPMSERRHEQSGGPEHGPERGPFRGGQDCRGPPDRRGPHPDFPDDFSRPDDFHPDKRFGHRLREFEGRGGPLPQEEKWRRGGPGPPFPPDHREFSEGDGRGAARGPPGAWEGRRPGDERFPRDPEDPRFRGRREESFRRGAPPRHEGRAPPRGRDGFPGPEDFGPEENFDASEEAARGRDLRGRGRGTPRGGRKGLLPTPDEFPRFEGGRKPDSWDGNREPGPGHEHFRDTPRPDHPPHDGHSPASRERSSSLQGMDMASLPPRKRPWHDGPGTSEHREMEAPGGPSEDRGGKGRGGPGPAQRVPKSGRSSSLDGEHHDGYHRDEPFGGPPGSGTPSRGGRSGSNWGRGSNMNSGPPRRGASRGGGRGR
UniProt Q5MNZ6: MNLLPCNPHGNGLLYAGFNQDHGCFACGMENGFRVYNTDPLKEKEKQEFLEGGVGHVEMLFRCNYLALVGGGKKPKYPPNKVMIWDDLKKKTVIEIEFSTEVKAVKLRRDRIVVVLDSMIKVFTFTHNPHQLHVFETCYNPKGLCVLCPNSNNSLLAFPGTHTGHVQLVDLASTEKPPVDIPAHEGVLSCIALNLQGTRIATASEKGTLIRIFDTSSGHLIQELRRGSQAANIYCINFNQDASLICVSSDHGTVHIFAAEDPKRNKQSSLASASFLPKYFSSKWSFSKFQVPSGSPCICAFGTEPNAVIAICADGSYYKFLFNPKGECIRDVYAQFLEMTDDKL
UniProt Q96AJ9: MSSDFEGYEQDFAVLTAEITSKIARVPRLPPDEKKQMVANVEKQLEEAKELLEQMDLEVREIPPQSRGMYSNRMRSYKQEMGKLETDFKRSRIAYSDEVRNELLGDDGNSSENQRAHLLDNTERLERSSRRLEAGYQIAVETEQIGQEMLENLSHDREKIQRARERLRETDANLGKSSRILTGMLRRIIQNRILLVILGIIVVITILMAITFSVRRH
UniProt Q9Y3C0: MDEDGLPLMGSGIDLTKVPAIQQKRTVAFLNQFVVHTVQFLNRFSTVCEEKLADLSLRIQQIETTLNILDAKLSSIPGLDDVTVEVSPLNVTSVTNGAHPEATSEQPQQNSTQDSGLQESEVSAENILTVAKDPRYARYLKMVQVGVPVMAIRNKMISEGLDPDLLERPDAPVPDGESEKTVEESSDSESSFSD
UniProt Q9H270: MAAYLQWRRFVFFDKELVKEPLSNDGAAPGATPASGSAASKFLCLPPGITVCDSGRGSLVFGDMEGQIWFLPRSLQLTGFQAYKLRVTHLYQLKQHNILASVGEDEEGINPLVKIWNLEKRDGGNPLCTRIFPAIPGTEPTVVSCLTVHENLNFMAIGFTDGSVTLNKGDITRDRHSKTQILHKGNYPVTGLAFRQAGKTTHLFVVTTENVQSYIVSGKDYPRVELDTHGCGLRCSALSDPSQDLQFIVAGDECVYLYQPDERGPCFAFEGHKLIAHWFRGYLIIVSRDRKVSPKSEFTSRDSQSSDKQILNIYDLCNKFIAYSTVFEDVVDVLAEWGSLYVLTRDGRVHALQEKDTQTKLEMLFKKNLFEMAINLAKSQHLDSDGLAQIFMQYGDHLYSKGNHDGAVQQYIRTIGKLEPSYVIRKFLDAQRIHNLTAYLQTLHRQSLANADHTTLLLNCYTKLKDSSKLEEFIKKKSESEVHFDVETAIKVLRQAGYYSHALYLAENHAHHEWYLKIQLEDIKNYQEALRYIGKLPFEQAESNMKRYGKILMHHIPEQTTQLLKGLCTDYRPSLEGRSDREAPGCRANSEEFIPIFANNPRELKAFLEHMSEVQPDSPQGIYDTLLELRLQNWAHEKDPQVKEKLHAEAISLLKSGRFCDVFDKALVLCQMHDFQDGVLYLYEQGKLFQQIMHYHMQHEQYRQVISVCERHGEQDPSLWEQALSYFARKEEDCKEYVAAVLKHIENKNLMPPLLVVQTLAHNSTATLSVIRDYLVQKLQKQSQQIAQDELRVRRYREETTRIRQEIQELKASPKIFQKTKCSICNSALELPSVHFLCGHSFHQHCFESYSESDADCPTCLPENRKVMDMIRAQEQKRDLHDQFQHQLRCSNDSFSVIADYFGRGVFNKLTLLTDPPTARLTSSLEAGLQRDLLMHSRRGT
UniProt Q96MX6, whole entry, looked up: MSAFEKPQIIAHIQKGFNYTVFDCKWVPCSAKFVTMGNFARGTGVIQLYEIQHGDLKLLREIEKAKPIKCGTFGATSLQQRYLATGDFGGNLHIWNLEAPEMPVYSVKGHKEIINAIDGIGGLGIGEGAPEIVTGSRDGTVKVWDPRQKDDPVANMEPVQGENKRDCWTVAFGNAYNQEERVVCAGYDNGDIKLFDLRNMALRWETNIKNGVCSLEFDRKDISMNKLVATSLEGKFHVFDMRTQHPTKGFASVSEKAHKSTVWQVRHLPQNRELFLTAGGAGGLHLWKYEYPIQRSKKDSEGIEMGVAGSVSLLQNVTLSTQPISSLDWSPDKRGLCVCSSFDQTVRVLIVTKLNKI
UniProt Q5JSH3: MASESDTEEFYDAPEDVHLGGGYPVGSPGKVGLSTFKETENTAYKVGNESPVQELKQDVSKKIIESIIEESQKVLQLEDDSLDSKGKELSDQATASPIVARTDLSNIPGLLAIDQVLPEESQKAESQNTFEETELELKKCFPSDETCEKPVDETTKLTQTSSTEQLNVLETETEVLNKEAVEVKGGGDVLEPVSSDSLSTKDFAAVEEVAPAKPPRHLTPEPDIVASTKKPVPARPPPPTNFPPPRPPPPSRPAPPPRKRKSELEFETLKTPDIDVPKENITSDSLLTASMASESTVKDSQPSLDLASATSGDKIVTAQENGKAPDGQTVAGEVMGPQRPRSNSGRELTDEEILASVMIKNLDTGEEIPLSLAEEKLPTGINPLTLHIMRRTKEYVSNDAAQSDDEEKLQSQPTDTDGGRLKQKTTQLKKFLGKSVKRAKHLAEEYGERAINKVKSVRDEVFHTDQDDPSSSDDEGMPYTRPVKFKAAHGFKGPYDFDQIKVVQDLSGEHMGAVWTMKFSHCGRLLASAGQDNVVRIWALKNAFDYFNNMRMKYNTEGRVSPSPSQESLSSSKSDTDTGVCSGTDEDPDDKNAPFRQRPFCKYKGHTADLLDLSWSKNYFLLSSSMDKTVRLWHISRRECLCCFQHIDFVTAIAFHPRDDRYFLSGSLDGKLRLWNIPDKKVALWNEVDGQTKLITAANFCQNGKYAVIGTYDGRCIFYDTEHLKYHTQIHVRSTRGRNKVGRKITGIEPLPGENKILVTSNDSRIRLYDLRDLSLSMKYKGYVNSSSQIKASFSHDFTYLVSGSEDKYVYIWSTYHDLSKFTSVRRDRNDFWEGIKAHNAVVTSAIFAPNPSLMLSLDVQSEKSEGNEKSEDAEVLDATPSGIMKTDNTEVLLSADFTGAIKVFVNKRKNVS
UniProt Q9H6R7: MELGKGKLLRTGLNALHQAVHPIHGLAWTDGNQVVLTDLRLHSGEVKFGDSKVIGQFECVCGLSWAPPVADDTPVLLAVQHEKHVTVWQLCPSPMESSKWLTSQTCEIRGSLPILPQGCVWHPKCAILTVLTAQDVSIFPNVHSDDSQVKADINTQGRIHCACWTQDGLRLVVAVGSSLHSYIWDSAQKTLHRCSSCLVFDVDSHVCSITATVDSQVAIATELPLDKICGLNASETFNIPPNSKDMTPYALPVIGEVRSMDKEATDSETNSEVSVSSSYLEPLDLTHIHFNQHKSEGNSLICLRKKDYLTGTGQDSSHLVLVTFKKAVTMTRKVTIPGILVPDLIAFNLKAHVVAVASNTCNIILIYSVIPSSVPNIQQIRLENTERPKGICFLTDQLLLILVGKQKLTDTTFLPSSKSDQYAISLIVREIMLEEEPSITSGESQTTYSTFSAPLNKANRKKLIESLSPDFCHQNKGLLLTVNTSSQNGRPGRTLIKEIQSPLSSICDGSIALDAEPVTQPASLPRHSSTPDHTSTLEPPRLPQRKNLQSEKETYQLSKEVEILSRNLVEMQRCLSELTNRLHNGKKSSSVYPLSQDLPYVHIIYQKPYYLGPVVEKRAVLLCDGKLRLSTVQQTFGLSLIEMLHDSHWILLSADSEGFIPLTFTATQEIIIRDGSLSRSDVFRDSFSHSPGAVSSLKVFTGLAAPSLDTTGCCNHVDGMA

Columns and labels:
Test in all cases: log2 fold change, soluble protein after heating vs DMSO (PISA); higher = thermal stabilisation; K562 lysate, 10 uM; active = over 0.2 and 3.5 SD of the protein, either way, in both replicates (recomputed)
erlotinib = compound: C#Cc1cccc(Nc2ncnc3cc(OCCOC)c(OCCOC)cc23)c1 [erlotinib]
Outline: (§1)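 Values give the log-two fold change in thermal stability against solvent controls, from duplicates. Crude K562 extract at 1 mg/mL protein, made by dounce homogenisation in PBS pH 7.4 with 1 mM MgCl2, was treated with 10 μM compound for 30 min. After 3 min heating across 48°C-58°C, aliquots were pooled, adjusted to 0.5% NP-40 at 4°C and centrifuged at 21,000xg for 90 min. The supernatant was measured by TMTpro 16plex LC-MS/MS with channel sums equalised.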

[1] = compound: C/C(=N\NC(=O)C1=CC(=CC=C1)S(=O)(=O)N2CCOCC2)/C3=C(C=CC(=C3)Cl)O
Outline: as §1

[2] = compound: C1=CC(=CC=C1C2=NC3=C(N2)C=C(C=C3)C(=O)N)OC4=CC=C(C=C4)Cl
Outline: as §1

[3] = compound: C1=CC2=C(C=CC(=C2)/C=C\3/C(=O)NC(=NCC4=CC=CS4)S3)N=C1
Outline: as §1

[4] = compound: C1=CC2=NC=CN=C2C=C1/C=C/3\C(=O)NC(=O)S3
Outline: as §1

[5] = compound: C1=CC=C(C=C1)C2=NC(=C(N2)C3=CC=NC=C3)C4=CC(=C(C=C4)Cl)O
Outline: as §1

[6] = compound: C1=CC=C2C(=C1)C3=NNC4=CC=CC(=C43)C2=O
Outline: as §1

[7] = compound: C1CCN(C1)C(=O)NC2=CC=CC(=C2)NC3=NC=C(C(=N3)NCCC4=CN=CN4)Br
Outline: as §1

[8] = compound: C1CN(CCC1(CC2=CC=C(C=C2)Cl)N)C3=NC=NC4=C3C=CN4
Outline: as §1

IRAK-1-4 Inhibitor I = compound: C1COCCN1CCN2C3=CC=CC=C3N=C2NC(=O)C4=CC(=CC=C4)[N+](=O)[O-] [IRAK-1-4 Inhibitor I]
Outline: as §1

ibrutinib = compound: C=CC(=O)N1CCC[C@@H](n2nc(-c3ccc(Oc4ccccc4)cc3)c3c(N)ncnc32)C1 [ibrutinib]
Outline: as §1

[9] = compound: CC(=O)c1cnc2ccc(-c3cc(Cl)c(O)c(Cl)c3)nc2c1N[C@H]1CC[C@H](CN(C)C)CC1
Outline: as §1

ralimetinib = compound: CC(C)(C)Cn1c(N)nc2ccc(-c3[nH]c(C(C)(C)C)nc3-c3ccc(F)cc3)nc21 [ralimetinib]
Outline: as §1

[10] = compound: CC(C)(O)CC(=O)NCCn1ccc2ncnc(Nc3ccc(Oc4cccc(C(F)(F)F)c4)c(Cl)c3)c21
Outline: as §1

[11] = compound: CC(C)C1=C2N=C(C=C(N2N=C1)NCC3=CC=CC=C3)NCCCCCCN
Outline: as §1

[12] = compound: CC1=C(C(CC(=O)N1)C2=CC=C(C=C2)C(F)(F)F)C(=O)NC3=C(C=C4C(=C3)C=NN4)F
Outline: as §1

[13] = compound: CC1=C(C2=C(C=C1)C(=O)C3=CC=CC=C3N2CCCN)C
Outline: as §1

[14] = compound: CC1=C(C=C(C=C1)NC(=O)C2=CC(=CC=C2)C(C)(C)C#N)NC3=CC4=C(C=C3)N=CN(C4=O)C
Outline: as §1

[15] = compound: CC1=C(C=C(C=C1)NC(=O)C2=CC(=CC=C2)N(C)C)NC(=O)C3=CC=C(C=C3)O
Outline: as §1

[16] = compound: CC1=CC=C(C=C1)SC2=C3C=C(SC3=CN=C2)C(=O)N
Outline: as §1

Measured: log2 fold change

VTA1 (UniProt Q9NP79)
inactive: erlotinib 0 | [1] 0.003 | [2] 0.001 | [3] 0.003 | [4] 0.011 | [5] 0.023 | [6] 0.025 | [7] 0.026 | [8] -0.008 | IRAK-1-4 Inhibitor I -0.014 | ibrutinib 0.046 | [9] -0.003 | ralimetinib -0.024 | [10] -0.001 | [11] -0.012 | [12] -0.024 | [13] 0.027 | [14] -0.032 | [15] 0.017 | [16] -0.01

WASH2P (UniProt Q6VEQ5)
inactive: erlotinib 0.008 | [1] 0.045 | [2] -0.02 | [3] -0.026 | [4] 0.026 | [5] 0.019 | [6] 0.026 | [7] 0.001 | [8] -0.014 | IRAK-1-4 Inhibitor I -0.031 | ibrutinib 0.038 | [9] 0.022 | ralimetinib 0 | [10] 0.013 | [11] -0.002 | [12] 0.013 | [13] -0.001 | [14] 0.018 | [15] -0.008 | [16] -0.019

WDR59 (UniProt Q6PJI9)
inactive: erlotinib 0.023 | [1] 0.102 | [2] 0.009 | [3] -0.016 | [4] 0.035 | [5] 0.063 | [6] 0.013 | [7] -0.093 | [8] -0.015 | IRAK-1-4 Inhibitor I 0.016 | ibrutinib 0.074 | [9] -0.014 | ralimetinib 0.034 | [10] -0.062 | [11] -0.012 | [12] -0.008 | [13] -0.006 | [14] 0.009 | [15] 0.056 | [16] 0.015

VPS13D (UniProt Q5THJ4)
inactive: erlotinib 0.051 | [1] 0.037 | [2] -0.043 | [3] -0.019 | [4] 0.031 | [5] -0.046 | [6] 0.006 | [7] -0.023 | [8] -0.026 | IRAK-1-4 Inhibitor I 0.063 | ibrutinib -0.059 | [9] -0.001 | ralimetinib 0.029 | [10] -0.197 | [11] -0.016 | [12] 0.038 | [13] -0.077 | [14] 0.072 | [15] -0.026 | [16] 0.048

WDR33 (UniProt Q9C0J8)
inactive: erlotinib 0.043 | [1] 0.007 | [2] 0.047 | [3] 0.033 | [4] -0.028 | [5] 0.019 | [6] -0.038 | [7] -0.027 | [8] 0.093 | IRAK-1-4 Inhibitor I 0.01 | ibrutinib 0.052 | [9] 0.033 | ralimetinib 0.033 | [10] -0.04 | [11] 0.003 | [12] -0.064 | [13] -0.019 | [14] -0.006 | [15] -0.001 | [16] -0.012

WDR45B (UniProt Q5MNZ6)
inactive: erlotinib -0.016 | [1] 0 | [2] 0.075 | [3] -0.024 | [4] 0.034 | [5] -0.007 | [6] 0.036 | [7] 0.01 | [8] 0.022 | IRAK-1-4 Inhibitor I 0.006 | ibrutinib 0.109 | [9] 0.007 | ralimetinib 0.027 | [10] -0.027 | [11] -0.019 | [12] 0.032 | [13] -0.038 | [14] 0.014 | [15] 0.02 | [16] -0.033

VTI1A (UniProt Q96AJ9)
inactive: erlotinib -0.009 | [1] -0.003 | [2] -0.029 | [3] 0.045 | [4] -0.043 | [5] -0.026 | [6] 0.008 | [7] -0.001 | [8] 0.025 | IRAK-1-4 Inhibitor I 0.028 | ibrutinib 0.068 | [9] 0.001 | ralimetinib -0.003 | [10] 0.002 | [11] 0.017 | [12] -0.026 | [13] -0.001 | [14] 0.013 | [15] 0.01 | [16] -0.054

WDR11 (UniProt Q9BZH6)
inactive: erlotinib 0.015 | [1] -0.206 | [2] 0.036 | [3] -0.076 | [4] -0.003 | [5] -0.018 | [6] -0.077 | [7] -0.106 | [8] 0.007 | IRAK-1-4 Inhibitor I 0.022 | ibrutinib -0.011 | [9] 0.008 | ralimetinib 0.02 | [10] -0.048 | [11] 0.035 | [12] -0.069 | [13] 0.007 | [14] 0.023 | [15] 0.03 | [16] -0.021

WASHC3 (UniProt Q9Y3C0)
inactive: erlotinib -0.017 | [1] -0.033 | [2] 0.012 | [3] -0.051 | [4] 0.02 | [5] 0.042 | [6] 0.091 | [7] 0.054 | [8] 0.097 | IRAK-1-4 Inhibitor I 0.067 | ibrutinib 0.004 | [9] -0.014 | ralimetinib 0.037 | [10] -0.022 | [11] -0.005 | [12] 0.017 | [13] -0.012 | [14] -0.004 | [15] -0.008 | [16] 0.014

VPS33B (UniProt Q9H267)
inactive: erlotinib 0.015 | [1] -0.021 | [2] 0.004 | [3] 0.023 | [4] -0.003 | [5] -0.01 | [6] 0.005 | [7] 0.006 | [8] -0.002 | IRAK-1-4 Inhibitor I -0.031 | ibrutinib -0.011 | [9] -0.012 | ralimetinib -0.002 | [10] -0.012 | [11] -0.034 | [12] 0.033 | [13] 0.034 | [14] -0.006 | [15] 0.012 | [16] 0.009

WARS2 (UniProt Q9UGM6)
inactive: erlotinib -0.034 | [1] -0.01 | [2] 0.038 | [3] 0.009 | [4] 0.03 | [5] 0.002 | [6] -0.041 | [7] -0.022 | [8] -0.007 | IRAK-1-4 Inhibitor I -0.011 | ibrutinib 0.086 | [9] 0.026 | ralimetinib 0.021 | [10] 0.007 | [11] -0.01 | [12] 0.006 | [13] -0.03 | [14] 0.015 | [15] 0.002 | [16] 0.04

VPS11 (UniProt Q9H270)
inactive: erlotinib 0.049 | [1] -0.037 | [2] 0.014 | [3] 0.034 | [4] 0.014 | [5] 0.011 | [6] -0.053 | [7] 0.003 | [8] -0.002 | IRAK-1-4 Inhibitor I -0.031 | ibrutinib -0.002 | [9] 0.025 | ralimetinib 0.033 | [10] -0.025 | [11] 0.001 | [12] 0.003 | [13] 0.031 | [14] 0.026 | [15] -0.03 | [16] -0.002

VPS29 isoform 2 (UniProt Q9UBQ0)
inactive: erlotinib -0.005 | [1] 0.05 | [2] -0.013 | [3] 0.004 | [4] 0.018 | [5] 0.01 | [6] 0.034 | [7] -0.012 | [8] 0.009 | IRAK-1-4 Inhibitor I -0.021 | ibrutinib 0.04 | [9] -0.029 | ralimetinib -0.048 | [10] -0.025 | [11] 0.012 | [12] -0.056 | [13] 0.017 | [14] 0.039 | [15] -0.028 | [16] -0.004

2 consecutive entries out of the list so far, for reference:
VPS11 (UniProt Q9H270)
inactive: erlotinib 0.049 | [1] -0.037 | [2] 0.014 | [3] 0.034 | [4] 0.014 | [5] 0.011 | [6] -0.053 | [7] 0.003 | [8] -0.002 | IRAK-1-4 Inhibitor I -0.031 | ibrutinib -0.002 | [9] 0.025 | ralimetinib 0.033 | [10] -0.025 | [11] 0.001 | [12] 0.003 | [13] 0.031 | [14] 0.026 | [15] -0.03 | [16] -0.002

VPS29 isoform 2 (UniProt Q9UBQ0)
inactive: erlotinib -0.005 | [1] 0.05 | [2] -0.013 | [3] 0.004 | [4] 0.018 | [5] 0.01 | [6] 0.034 | [7] -0.012 | [8] 0.009 | IRAK-1-4 Inhibitor I -0.021 | ibrutinib 0.04 | [9] -0.029 | ralimetinib -0.048 | [10] -0.025 | [11] 0.012 | [12] -0.056 | [13] 0.017 | [14] 0.039 | [15] -0.028 | [16] -0.004

Remaining list, next part

WDR92 (UniProt Q96MX6)
inactive: erlotinib -0.007 | [1] 0.049 | [2] -0.006 | [3] 0.017 | [4] -0.02 | [5] -0.025 | [6] -0.049 | [7] -0.002 | [8] -0.002 | IRAK-1-4 Inhibitor I 0.01 | ibrutinib 0.077 | [9] 0.046 | ralimetinib 0.018 | [10] 0.058 | [11] -0.004 | [12] 0.014 | [13] 0.021 | [14] -0.01 | [15] -0.013 | [16] 0.021

WDR44 (UniProt Q5JSH3)
inactive: erlotinib -0.012 | [1] 0 | [2] 0.02 | [3] -0.013 | [4] -0.008 | [5] 0.004 | [6] -0.011 | [7] -0.005 | [8] 0.001 | IRAK-1-4 Inhibitor I 0.002 | ibrutinib 0.009 | [9] -0.021 | ralimetinib 0.012 | [10] -0.027 | [11] 0.001 | [12] -0.007 | [13] -0.004 | [14] 0.002 | [15] -0.002 | [16] -0.014

WDCP (UniProt Q9H6R7)
inactive: erlotinib -0.06 | [1] 0.091 | [2] 0.079 | [3] 0.018 | [4] 0.024 | [5] 0 | [6] -0.011 | [7] -0.022 | [8] 0.002 | IRAK-1-4 Inhibitor I 0.024 | ibrutinib 0.021 | [9] 0.021 | ralimetinib -0.006 | [10] -0.045 | [11] -0.027 | [12] -0.023 | [13] -0.041 | [14] 0 | [15] 0.01 | [16] 0.049
